This note sets out measurements from paper PMC5393151.

The chains behind the UniProt entries cited, without tags or fusion partners. Where a name states a change or a piece, a line headed by the entry shows the natural chain unless it says otherwise.
UniProt Q07878: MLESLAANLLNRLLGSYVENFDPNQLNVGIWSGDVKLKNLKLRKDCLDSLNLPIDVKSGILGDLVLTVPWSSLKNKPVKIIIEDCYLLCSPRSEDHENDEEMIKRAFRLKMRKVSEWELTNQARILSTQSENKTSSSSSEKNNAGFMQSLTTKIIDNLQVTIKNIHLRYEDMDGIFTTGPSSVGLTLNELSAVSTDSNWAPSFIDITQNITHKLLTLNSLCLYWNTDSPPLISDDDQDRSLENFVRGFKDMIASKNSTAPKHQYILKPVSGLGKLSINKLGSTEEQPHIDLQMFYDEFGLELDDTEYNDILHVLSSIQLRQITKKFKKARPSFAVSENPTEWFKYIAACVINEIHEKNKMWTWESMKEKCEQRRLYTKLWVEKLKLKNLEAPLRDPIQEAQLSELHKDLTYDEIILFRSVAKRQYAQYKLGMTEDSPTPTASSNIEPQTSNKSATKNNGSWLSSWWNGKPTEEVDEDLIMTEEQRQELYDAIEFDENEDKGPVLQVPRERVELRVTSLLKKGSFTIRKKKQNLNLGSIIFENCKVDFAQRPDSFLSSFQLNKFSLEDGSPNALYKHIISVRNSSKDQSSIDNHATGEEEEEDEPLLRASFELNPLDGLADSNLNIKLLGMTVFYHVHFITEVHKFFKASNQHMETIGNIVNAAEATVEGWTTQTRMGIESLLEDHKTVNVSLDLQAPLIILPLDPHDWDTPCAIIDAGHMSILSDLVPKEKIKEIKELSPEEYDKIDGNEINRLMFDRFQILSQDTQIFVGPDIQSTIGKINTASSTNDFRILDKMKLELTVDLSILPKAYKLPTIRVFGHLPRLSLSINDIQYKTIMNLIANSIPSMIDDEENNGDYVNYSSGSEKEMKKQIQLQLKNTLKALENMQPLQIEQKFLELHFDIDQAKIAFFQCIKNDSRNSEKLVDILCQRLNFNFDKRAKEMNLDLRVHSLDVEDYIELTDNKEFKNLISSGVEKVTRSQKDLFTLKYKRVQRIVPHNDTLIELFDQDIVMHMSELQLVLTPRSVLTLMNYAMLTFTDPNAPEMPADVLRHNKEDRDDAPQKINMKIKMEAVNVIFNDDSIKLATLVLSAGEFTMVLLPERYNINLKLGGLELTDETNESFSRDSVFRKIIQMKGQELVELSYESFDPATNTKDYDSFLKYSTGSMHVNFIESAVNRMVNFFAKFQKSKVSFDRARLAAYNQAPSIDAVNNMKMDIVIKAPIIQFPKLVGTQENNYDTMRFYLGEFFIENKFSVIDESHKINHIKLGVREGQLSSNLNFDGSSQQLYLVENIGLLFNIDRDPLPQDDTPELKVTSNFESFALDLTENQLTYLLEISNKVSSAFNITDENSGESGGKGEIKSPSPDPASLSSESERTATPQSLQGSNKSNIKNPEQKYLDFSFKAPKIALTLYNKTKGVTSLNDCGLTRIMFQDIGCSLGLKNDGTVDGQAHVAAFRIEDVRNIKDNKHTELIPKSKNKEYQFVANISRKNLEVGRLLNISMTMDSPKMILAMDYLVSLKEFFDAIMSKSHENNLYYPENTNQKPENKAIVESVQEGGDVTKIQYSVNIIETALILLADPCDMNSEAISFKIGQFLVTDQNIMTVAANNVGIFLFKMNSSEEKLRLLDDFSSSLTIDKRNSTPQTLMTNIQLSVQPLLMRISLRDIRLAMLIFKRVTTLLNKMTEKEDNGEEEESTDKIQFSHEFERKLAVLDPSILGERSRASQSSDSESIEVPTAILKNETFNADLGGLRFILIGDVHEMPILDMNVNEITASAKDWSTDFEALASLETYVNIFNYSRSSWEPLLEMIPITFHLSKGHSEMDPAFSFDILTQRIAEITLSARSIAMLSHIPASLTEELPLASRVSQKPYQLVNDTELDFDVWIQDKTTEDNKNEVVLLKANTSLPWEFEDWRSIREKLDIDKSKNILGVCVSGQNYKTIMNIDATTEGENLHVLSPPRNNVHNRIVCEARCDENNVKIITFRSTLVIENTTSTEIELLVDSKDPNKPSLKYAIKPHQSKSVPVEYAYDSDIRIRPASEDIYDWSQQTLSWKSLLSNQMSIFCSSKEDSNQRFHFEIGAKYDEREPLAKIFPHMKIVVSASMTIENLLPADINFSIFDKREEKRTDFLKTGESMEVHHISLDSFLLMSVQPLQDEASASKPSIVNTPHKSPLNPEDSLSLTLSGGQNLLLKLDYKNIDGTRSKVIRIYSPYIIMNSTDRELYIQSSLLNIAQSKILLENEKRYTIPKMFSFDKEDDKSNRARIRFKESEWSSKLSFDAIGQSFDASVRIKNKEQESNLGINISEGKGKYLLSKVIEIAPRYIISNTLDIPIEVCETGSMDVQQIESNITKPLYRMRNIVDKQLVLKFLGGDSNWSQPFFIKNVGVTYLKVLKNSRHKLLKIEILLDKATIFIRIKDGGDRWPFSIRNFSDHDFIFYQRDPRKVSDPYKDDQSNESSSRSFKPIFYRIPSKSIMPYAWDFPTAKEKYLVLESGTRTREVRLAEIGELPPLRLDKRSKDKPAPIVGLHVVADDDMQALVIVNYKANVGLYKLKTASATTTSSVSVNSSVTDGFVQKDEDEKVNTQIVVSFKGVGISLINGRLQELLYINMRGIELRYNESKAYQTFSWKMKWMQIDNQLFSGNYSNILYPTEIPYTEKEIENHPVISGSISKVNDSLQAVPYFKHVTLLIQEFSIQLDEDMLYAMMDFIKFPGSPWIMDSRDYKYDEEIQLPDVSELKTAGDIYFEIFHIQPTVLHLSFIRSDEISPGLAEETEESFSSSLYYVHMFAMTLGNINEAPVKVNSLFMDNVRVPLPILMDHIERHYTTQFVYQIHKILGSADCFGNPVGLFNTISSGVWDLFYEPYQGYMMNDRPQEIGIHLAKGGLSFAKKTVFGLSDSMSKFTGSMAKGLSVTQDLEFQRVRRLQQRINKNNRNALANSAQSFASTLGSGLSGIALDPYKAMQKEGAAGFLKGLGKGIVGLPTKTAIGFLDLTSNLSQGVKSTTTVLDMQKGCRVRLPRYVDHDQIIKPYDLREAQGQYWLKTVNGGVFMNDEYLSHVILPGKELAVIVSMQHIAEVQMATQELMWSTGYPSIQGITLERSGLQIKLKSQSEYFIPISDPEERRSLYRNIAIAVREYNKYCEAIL

Results are given in words; binding and its absence hold for the method and conditions named. Binding seen in cells or lysates may run through a third protein. Some results given as binding are weak or reduced against the parent protein; the word gives no strength.

Assay [1] addresses Vps13-GFP (S. cerevisiae) (UniProt Q07878). Description: co-IP; GFP-tagged Vps13 precipitated with GFP-Trap magnetic beads from yeast extracts (glass beads; 50 mM HEPES pH 7.5, 100 mM NaCl, 1 mM MgCl2, 0.5% Triton X-100), 2 h at 4 °C, five washes with 50 mM HEPES pH 7.5; western blot with anti-GFP and anti-actin. For orientation: A western blot detects proteins with antibodies after separation by electrophoresis.

In assay [2] the target is Vps13-I2749R-GFP (S. cerevisiae) (UniProt Q07878). Described as above.

For actin (from UniProt P60010 1-375), the binding result in assay [1] and in assay [2] was “binds” throughout.
